{"source": "PubChem BioAssay AID1508600", "about": "(Functional Genomics Laboratory (NCATS/FGL), 2020)", "note": "Among all 53,000 sequences or so, about 3,700 (7%) were called active.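 How the source made its calls: active means gene knockdowns whose robust z-score for IL-1 alpha signal is at least 2 or at most -2, so actives lie on both sides; inactive means the rest.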 This is one part of the list.", "data": [{"experiment": "Components of the Cytosolic LPS Sensing Pathway: Gene Identification via Genome-wide siRNA Screen;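 further: robust z of the log signal after scaling to non-targeting control siRNA wells of the plate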", "conditions": "RAW264.7 macrophages, IL-1a HTRF, actives lie on both sides, screened at 100 nM (by protocol), cells primed 5 h with Pam3CSK4 first", "method_in_brief": "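RAW264.7 mouse macrophages reverse-transfected with single siRNAs (100 nM final) for 48h, primed with Pam3CSK4 for 5 hours, then transfected with LipidA for 24 hour. Supernatant IL-1a read by HTRF; values normalized to negative-control median, log-transformed robust z-scores.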", "values": [{"sequence": "GGAAGACACUGGUUUCCAATT against 1700067P10Rik", "z-score": "active: 2.62"}, {"sequence": "GGGCAAGAUGUUUUUCUUCTT against Mfsd10", "z-score": "inactive: 0.434"}, {"sequence": "CCGUGGCAUGUUCAUGAAATT against Mpg", "z-score": "inactive: 0.181"}, {"sequence": "CCACUAUUCUUAACUUGGCTT against Hdac7", "z-score": "inactive: 0.194"}, {"sequence": "GCCGCCAUGGACUUACAAGTT against Stim2", "z-score": "inactive: 0.237"}, {"sequence": "CCUACAAGCAGAGUACAAUTT against Myo10", "z-score": "inactive: 1.06"}, {"sequence": "GGCGGUGCAGUUCUGUAAATT against Kif18a", "z-score": "inactive: 0.752"}, {"sequence": "GGAAAUCACUGCACUGGCUTT against Actc1", "z-score": "inactive: 0.931"}, {"sequence": "GGACAAAAAAAUAGAAGGATT against Rrbp1", "z-score": "inactive: 0.344"}, {"sequence": "GGAUAGCACAGCCCUACAUTT against Kcns1", "z-score": "inactive: -0.197"}, {"sequence": "GGAGCACGGAAACUUGUUCTT against Metap1", "z-score": "inactive: 0.799"}, {"sequence": "GAGAAAACAUGACCUGGGUTT against Olfr456", "z-score": "inactive: -1.07"}, {"sequence": "GGGUCAAGGUAGUAGUACCTT against Tob1", "z-score": "inactive: 0.275"}, {"sequence": "GGCAGUAUAAUUCGUUGUATT against Mtrex", "z-score": "inactive: 1.16"}, {"sequence": "CCAUGGUCAUCCCGAUGUUTT against Olfr1454", "z-score": "inactive: 0.171"}, {"sequence": "GGGAAUCUUUGUAAACAGATT against Abhd14b", "z-score": "inactive: -0.351"}, {"sequence": "GGAUCUAUCUCUAGUCCCGTT against Zfp358", "z-score": "inactive: -1.74"}, {"sequence": "GGAUCUCUGGGUCUGAAAATT against Ccz1", "z-score": "inactive: 0.606"}, {"sequence": "CCAGCUAAAAAGAUGGUAGTT against Rreb1", "z-score": "inactive: 0.319"}, {"sequence": "GGACUUCACCAUCUAUAACTT against Vangl1", "z-score": "inactive: -1.04"}, {"sequence": "GGAGUAAUCAUGCUGGAGCTT against 9930104L06Rik", "z-score": "inactive: -0.102"}, {"sequence": "GAAACUGUAACAGUCUAUATT against Spp1", "z-score": "inactive: 0.951"}, {"sequence": "GUGAUGUCACUAAUGCCAATT against Cd99", "z-score": "inactive: 0.628"}, {"sequence": "CGACCUGUUUGAAAACACCTT against Cnn1", "z-score": "inactive: -0.0803"}, {"sequence": "GGGAGAGAAGCCAUAUAAATT against Zfp7", "z-score": "inactive: -1.47"}, {"sequence": "GCCUACAAUCGAGACAGUUTT against Sgca", "z-score": "inactive: 1.15"}, {"sequence": "GGUCUCUUUAGUUAAGAUGTT against Wrn", "z-score": "inactive: -0.149"}, {"sequence": "GCUAAUGCUGCGUAUUUGCTT against Cops7b", "z-score": "inactive: -0.159"}, {"sequence": "CCUGACUCUACAUUUUACATT against Tab3", "z-score": "inactive: -0.581"}, {"sequence": "GCUACCUAAUGAAGAGGCCTT against Arhgef28", "z-score": "inactive: 0.966"}, {"sequence": "GGUUACUGGUAAAUGGCAGTT against Olfr1505", "z-score": "inactive: 1.24"}, {"sequence": "GGAAGGCUUUCAAGAUUCATT against Gsta1", "z-score": "inactive: -0.128"}, {"sequence": "AACCUGGCUCAUAUCCCAUTT against Retnlg", "z-score": "inactive: -0.318"}, {"sequence": "GGAAGAGGUGAAUGAUAAATT against Bmi1", "z-score": "inactive: 1.51"}, {"sequence": "GGCCUCCAAAUGAACAGCATT against Trmt61a", "z-score": "inactive: -0.365"}, {"sequence": "GGUUUCAGGAAAGAAACAATT against Epb42", "z-score": "inactive: -0.482"}, {"sequence": "GGAAAGCUUUCUAUUACAATT against Zfp809", "z-score": "inactive: 0.634"}, {"sequence": "GGCUGCAUUUCCAAAUGAUTT against Zfp819", "z-score": "inactive: 0.403"}, {"sequence": "GCAAAUAUUGGCCACUCUCTT against Prpf19", "z-score": "inactive: -0.523"}, {"sequence": "CCUGCAUGAUUCUUACAUGTT against Mrgprd", "z-score": "inactive: 1.08"}, {"sequence": "GGUGUUGAGAAGAAAAAUATT against Spz1", "z-score": "inactive: 1.68"}, {"sequence": "GGGUGUUUGCUCAGAGAUGTT against Rtp3", "z-score": "inactive: -0.669"}, {"sequence": "GGCAAGUUUGCUAUAACCUTT against Jmy", "z-score": "active: -2.57"}, {"sequence": "GGAGUUGAAGUUUGUGACATT against Acpp", "z-score": "inactive: -1.76"}, {"sequence": "GGAGCUCUUCCAGUUGUUUTT against Khk", "z-score": "inactive: -1.51"}, {"sequence": "CCAUAACCACCUGUCAUUGTT against Mrpl55", "z-score": "inactive: -1.63"}, {"sequence": "UUGAACAGUGGAACAAUGATT against Fbxo27", "z-score": "active: 2.59"}, {"sequence": "GCCUCCUUUGCUUCAUUUCTT against Fcer1g", "z-score": "inactive: 1.83"}, {"sequence": "CCCAAAAAUUGACAAGUCATT against Batf", "z-score": "inactive: -0.882"}, {"sequence": "CCAUAUCAGGCAUAGCAGUTT against Nthl1", "z-score": "inactive: -0.772"}, {"sequence": "GGGCGUACUGGAAACACAUTT against Pou3f4", "z-score": "inactive: 1.84"}, {"sequence": "GGUACAUUUCUAGCUUUGATT against Nfya", "z-score": "inactive: -0.47"}, {"sequence": "GGAAGAGCUUUCUGGAAAUTT against Ndrg2", "z-score": "inactive: 0.226"}, {"sequence": "GCGGGACCAGGAGUAAACUTT against Pabpn1l", "z-score": "inactive: 1.5"}, {"sequence": "GGCCUUGAGAGGCUAAUACTT against Spata20", "z-score": "inactive: -1.27"}, {"sequence": "GGUUCAAGUGACCAAGUUCTT against Odf3", "z-score": "inactive: -0.487"}, {"sequence": "GACAAGCAAUAAAGAAAGATT against Lce1l", "z-score": "inactive: -1.45"}, {"sequence": "GGAGCUAAGGGAACAAUUATT against Psmc6", "z-score": "active: -2.1"}, {"sequence": "GCCUCAGUUUGAAAUUGUUTT against Tbrg1", "z-score": "inactive: -0.695"}, {"sequence": "CGUGUUCAAAAGAGUUUUCTT against Sos1", "z-score": "inactive: 1.22"}, {"sequence": "CCUUCGUCUGGAUUCUUAATT against Stard3", "z-score": "inactive: -0.413"}, {"sequence": "GGUGGAUCGCUUUAACCUGTT against Acd", "z-score": "inactive: 0.895"}, {"sequence": "GCUUUAGCUUUCCCUCGUUTT against Rsl1", "z-score": "inactive: 1.47"}, {"sequence": "GGAAUCAAAACAAUCGAAUTT against Nfia", "z-score": "inactive: -0.485"}, {"sequence": "GGGUUAAAGCGAGUGGGUCTT against Rrnad1", "z-score": "inactive: 0.0249"}, {"sequence": "GCCUUUCUUCAGUGUUCACTT against Gm128", "z-score": "inactive: 0.498"}, {"sequence": "GUUCCAGUUUAUCCCUUCUTT against Klra1", "z-score": "inactive: 0.255"}, {"sequence": "CGGACUAUUGUGUUGUUAATT against Atoh1", "z-score": "inactive: 1.23"}, {"sequence": "GCUUGAAGCGAUUAUUUGUTT against Slc25a14", "z-score": "inactive: 0.704"}, {"sequence": "GGCUUCUUCUAUAACCCAATT against H1f1", "z-score": "inactive: -0.852"}, {"sequence": "GGUCACUGUUAGUUAUUAATT against Tcerg1l", "z-score": "inactive: 0.954"}, {"sequence": "GCAAAAAGCAGACUAUGAATT against Vezf1", "z-score": "inactive: -0.797"}, {"sequence": "GCACUACCGUGAUGAGAUGTT against Dnaic1", "z-score": "inactive: 0.00578"}, {"sequence": "GUCUCUUGGUAAAUGGCAATT against Hcrt", "z-score": "inactive: 1.42"}, {"sequence": "GCCAAAAAAGCUGUCAGUUTT against Nkx2-3", "z-score": "inactive: -1.11"}, {"sequence": "GGAGACCUAUGAGGUAUUUTT against Ckmt1", "z-score": "inactive: -0.846"}, {"sequence": "GGUCACAGAAUCGGUUUCATT against Cuta", "z-score": "inactive: 1.02"}, {"sequence": "GCUAUGCUACUAAGCAUUCTT against Bmp8b", "z-score": "inactive: 0.631"}, {"sequence": "GGUUUACAAUGAGAUAGUUTT against Lipf", "z-score": "inactive: -0.85"}, {"sequence": "CGUGGGUACAAUCAGAUAATT against Mapk1ip1l", "z-score": "inactive: 0.957"}, {"sequence": "GGGAUAGUUACAUUGAAGUTT against Acot10", "z-score": "inactive: -0.932"}, {"sequence": "CCUGUUUCACAGCUUCUAUTT against Cptp", "z-score": "inactive: -1.6"}, {"sequence": "CCUCUCCCUAAUUAUCUUUTT against Ripply3", "z-score": "inactive: 1.19"}, {"sequence": "GAGUCUUACAUCAAGAAGATT against 9230106D20Rik", "z-score": "inactive: 0.538"}, {"sequence": "GGAGGUGAAAGGCAAAACUTT against Poldip2", "z-score": "inactive: -0.122"}, {"sequence": "GGAUGCUGUCCAACUGGAUTT against Plxnb2", "z-score": "inactive: 0.17"}, {"sequence": "CGAGCUUUGCACUUACUAUTT against Vtn", "z-score": "inactive: -0.709"}, {"sequence": "CGGCAUGUCCUUCAUCGCUTT against Proser2", "z-score": "active: -2.89"}, {"sequence": "CGGCCUCUCGAAUCGAUAUTT against Usp19", "z-score": "inactive: 1.82"}, {"sequence": "GGCUCAAUAAUGUUUUCAATT against Smpd3", "z-score": "active: 3.18"}, {"sequence": "GGACUCAGGCCAAGAAAGATT against Rrs1", "z-score": "inactive: 0.341"}, {"sequence": "GGUGAAAUAUGCAGUAAAATT against Adam18", "z-score": "inactive: -0.125"}, {"sequence": "GCUAUUUGGUACCCUUUGATT against Olfr600", "z-score": "inactive: -0.00896"}, {"sequence": "GGAAUGUGGGAAUAUUUACTT against Zfp59", "z-score": "inactive: 0.777"}, {"sequence": "GCCUUUACAACAGAACCUUTT against Appl2", "z-score": "inactive: 0.356"}, {"sequence": "GGAGAAGUAAUGACAAAUUTT against Foxp4", "z-score": "inactive: -1.47"}, {"sequence": "GCCAGAUCUUUAUAUCCCGTT against Gdi2", "z-score": "inactive: -0.094"}, {"sequence": "GCACUGGUGGACAGAUUCUTT against Col3a1", "z-score": "inactive: 0.3"}, {"sequence": "UGGCAAAAAGGUGAUAACUTT against Hbb-b2", "z-score": "inactive: 0.86"}, {"sequence": "CGGAACCAUAGGGAAUCAGTT against Cmc2", "z-score": "active: 2.04"}, {"sequence": "GGAUCACUUUAUUUGCUAGTT against Btg1", "z-score": "inactive: 0.402"}, {"sequence": "GGUUUGUGCUCUUUAUUUGTT against Tcaf2", "z-score": "inactive: 0.692"}, {"sequence": "CCGUUCUUCAUAUGAGCUCTT against Olfr164", "z-score": "inactive: 1.17"}, {"sequence": "GGAAGAAGAAGGAGCUAGATT against Slu7", "z-score": "active: -2.2"}, {"sequence": "GGAUUUGCCCAAAAUAAAATT against Nap1l5", "z-score": "inactive: -0.669"}, {"sequence": "CCGACAAAAGGUAUUCUGGTT against Aatf", "z-score": "inactive: -0.0972"}, {"sequence": "GGACAGUGAUGAAGAAAAUTT against Srek1ip1", "z-score": "inactive: -1.36"}, {"sequence": "CCUUUAAAGUAAGCAUGUGTT against Slc27a4", "z-score": "inactive: 0.112"}]}]}
